Article doi:10.1101/2021.03.31.437839

Biological target: HA-JICD1 (JAG1 intracellular domain) (human) (UniProt P78504)
Test: affinity purification with mass spectrometry

| Molecule | binding |
| --- | --- |
| DDX17 (DEAD-Box Helicase 17) found with JICD1 by mass spectrometry (from UniProt Q92841 1-729) | binds |
| HSPA5 (Heat Shock Protein Family A Member 5) (from UniProt P11021 19-654) | binds |
| PDIA6 (Protein Disulfide Isomerase Family A Member 6) (protein, UniProt Q15084 20-440) LYSSSDDVIELTPSNFNREVIQSDSLWLVEFYAPWCGHCQRLTPEWKKAATALKDVVKVGAVDADKHHSLGGQYGVQGFPTIKIFGSNKNRPEDYQGGRTGEAIVDAALSALRQLVKDRLGGRSGGYSSGKQGRSDSSSKKDVIELTDDSFDKNVLDSEDVWMVEFYAPWCGHCKNLEPEWAAAASEVKEQTKGKVKLAAVDATVNQVLASRYGIRGFPTIKIFQKGESPVDYDGGRTRSDIVSRALDLFSDNAPPPELLEIINEDIAKRTCEEHQLCVVAVLPHILDTGAAGRNSYLEVLLKLADKYKKKMWGWLWTEAGAQSELETALGIGGFGYPAMAAINARKMKFALLKGSFSEQGINEFLRELSFGRGSTAPVGGGAFPTIVEREPWDGRDGELPVEDDIDLSDVELDDLGKDEL | binds |

No constants are given. Whether binding was seen depends on the method and setting. Binding seen in cells or lysates may run through a third protein. A yes stands for co-enrichment or nearness to the bait. Other partners may have been found.
